# Source: the supplement of paper PMC6411743
# Amino acid sequences for entries named in this document (tags omitted). A change or cut given only in a name is not applied to a line headed by its entry.
# UniProt P61956, whole entry: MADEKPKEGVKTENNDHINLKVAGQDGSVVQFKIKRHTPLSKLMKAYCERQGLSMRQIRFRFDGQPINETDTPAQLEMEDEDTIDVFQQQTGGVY
# UniProt P61018: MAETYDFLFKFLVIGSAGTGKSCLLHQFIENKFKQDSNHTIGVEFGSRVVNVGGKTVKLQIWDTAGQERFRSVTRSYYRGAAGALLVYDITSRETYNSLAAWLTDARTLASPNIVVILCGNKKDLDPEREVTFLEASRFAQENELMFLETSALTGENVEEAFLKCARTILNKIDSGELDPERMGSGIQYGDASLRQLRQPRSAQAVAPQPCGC
# UniProt Q06203, whole entry: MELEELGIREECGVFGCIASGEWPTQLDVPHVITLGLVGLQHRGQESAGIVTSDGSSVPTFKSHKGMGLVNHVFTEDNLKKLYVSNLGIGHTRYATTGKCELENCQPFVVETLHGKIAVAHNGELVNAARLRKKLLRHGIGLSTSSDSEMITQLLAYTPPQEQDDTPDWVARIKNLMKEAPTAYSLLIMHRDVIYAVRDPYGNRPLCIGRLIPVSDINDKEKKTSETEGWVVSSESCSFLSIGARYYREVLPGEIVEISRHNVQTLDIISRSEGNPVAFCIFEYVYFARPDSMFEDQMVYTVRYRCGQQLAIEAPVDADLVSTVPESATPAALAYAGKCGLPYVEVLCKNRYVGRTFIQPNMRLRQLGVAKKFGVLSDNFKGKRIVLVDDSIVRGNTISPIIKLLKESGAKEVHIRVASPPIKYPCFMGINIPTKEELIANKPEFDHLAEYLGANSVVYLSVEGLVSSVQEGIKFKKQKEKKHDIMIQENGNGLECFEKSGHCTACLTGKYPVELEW
# UniProt P61026: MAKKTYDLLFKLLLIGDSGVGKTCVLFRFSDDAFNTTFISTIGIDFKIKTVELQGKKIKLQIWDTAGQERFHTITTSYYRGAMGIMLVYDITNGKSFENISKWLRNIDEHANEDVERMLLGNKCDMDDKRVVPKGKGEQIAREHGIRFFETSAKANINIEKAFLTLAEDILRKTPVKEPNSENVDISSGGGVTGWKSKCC
# UniProt P57088: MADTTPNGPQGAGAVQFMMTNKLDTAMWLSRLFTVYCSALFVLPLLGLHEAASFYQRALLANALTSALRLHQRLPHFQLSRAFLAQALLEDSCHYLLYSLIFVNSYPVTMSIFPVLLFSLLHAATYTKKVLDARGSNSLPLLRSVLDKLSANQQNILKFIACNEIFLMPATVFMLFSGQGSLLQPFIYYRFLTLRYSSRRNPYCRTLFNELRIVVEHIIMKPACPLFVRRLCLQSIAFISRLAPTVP
# UniProt P61758, whole entry: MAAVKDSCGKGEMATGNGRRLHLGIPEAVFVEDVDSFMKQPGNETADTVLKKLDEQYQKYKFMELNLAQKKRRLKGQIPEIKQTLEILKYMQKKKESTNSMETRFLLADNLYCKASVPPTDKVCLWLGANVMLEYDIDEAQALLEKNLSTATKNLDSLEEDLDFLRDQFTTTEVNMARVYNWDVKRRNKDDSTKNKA
# UniProt P68036, whole entry: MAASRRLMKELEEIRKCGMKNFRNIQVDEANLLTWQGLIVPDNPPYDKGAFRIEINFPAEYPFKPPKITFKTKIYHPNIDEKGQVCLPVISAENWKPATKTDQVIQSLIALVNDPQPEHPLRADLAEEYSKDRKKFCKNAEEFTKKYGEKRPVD
# UniProt P61586, whole entry: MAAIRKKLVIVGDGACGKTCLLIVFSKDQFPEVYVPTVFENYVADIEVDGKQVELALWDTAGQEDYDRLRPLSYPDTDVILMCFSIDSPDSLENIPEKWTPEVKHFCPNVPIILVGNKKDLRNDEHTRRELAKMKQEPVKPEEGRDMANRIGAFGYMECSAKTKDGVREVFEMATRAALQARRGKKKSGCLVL
# UniProt P61081: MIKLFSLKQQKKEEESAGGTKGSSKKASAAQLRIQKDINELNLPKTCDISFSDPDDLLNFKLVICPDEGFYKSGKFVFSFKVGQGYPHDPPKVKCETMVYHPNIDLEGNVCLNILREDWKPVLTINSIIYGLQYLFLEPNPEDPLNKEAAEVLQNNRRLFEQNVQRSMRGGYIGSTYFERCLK
# UniProt Q04724: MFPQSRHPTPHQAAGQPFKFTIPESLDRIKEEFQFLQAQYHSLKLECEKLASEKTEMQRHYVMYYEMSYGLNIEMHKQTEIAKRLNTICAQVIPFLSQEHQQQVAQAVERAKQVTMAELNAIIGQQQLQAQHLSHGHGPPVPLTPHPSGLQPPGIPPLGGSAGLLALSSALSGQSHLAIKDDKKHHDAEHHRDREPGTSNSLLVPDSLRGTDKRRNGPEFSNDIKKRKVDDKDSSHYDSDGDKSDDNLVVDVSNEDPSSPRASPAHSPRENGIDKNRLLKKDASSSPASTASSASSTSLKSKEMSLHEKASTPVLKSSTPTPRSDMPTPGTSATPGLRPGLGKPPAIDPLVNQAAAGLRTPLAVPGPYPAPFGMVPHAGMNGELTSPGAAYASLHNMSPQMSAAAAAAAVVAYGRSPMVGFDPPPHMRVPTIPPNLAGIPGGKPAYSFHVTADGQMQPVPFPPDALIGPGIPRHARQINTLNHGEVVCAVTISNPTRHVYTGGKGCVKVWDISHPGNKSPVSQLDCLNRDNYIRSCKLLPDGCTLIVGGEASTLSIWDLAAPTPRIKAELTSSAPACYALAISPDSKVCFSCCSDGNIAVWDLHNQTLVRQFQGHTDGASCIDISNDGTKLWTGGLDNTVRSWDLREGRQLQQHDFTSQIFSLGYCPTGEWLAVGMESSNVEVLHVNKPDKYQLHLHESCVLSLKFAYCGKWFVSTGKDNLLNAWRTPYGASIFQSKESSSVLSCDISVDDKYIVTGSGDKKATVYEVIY
# UniProt P61201: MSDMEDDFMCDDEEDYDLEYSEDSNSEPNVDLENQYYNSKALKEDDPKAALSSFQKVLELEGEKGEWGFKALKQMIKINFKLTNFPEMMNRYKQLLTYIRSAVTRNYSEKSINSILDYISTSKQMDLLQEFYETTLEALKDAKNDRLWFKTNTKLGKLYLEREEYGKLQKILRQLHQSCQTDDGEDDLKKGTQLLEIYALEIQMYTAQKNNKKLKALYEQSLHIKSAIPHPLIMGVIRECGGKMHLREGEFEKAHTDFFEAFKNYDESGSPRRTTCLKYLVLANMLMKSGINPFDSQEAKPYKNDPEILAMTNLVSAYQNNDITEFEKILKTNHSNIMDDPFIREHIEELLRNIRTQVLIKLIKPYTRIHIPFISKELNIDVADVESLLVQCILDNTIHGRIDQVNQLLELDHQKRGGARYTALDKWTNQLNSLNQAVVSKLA
# UniProt P78371: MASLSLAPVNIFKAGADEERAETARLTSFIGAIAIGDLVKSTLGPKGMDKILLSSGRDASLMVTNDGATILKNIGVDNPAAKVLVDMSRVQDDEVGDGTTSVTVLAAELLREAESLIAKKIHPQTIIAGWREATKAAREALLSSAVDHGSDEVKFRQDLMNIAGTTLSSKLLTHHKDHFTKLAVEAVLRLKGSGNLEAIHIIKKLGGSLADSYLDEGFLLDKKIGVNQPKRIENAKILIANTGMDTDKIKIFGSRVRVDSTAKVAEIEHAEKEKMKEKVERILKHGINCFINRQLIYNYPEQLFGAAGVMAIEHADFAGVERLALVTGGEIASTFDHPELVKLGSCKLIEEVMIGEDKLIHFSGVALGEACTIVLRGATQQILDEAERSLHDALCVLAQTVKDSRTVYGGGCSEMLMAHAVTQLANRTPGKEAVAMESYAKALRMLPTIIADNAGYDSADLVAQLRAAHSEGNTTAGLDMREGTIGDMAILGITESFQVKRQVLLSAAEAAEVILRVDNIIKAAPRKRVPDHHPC
# UniProt P62380: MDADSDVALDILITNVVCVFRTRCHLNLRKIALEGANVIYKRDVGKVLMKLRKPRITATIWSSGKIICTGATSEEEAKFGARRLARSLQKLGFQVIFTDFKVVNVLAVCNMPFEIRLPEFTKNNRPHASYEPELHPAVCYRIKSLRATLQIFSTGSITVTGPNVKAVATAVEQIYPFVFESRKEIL
# UniProt P62312: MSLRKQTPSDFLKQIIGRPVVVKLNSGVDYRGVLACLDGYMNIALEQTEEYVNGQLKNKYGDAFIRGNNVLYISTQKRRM
# UniProt P82094: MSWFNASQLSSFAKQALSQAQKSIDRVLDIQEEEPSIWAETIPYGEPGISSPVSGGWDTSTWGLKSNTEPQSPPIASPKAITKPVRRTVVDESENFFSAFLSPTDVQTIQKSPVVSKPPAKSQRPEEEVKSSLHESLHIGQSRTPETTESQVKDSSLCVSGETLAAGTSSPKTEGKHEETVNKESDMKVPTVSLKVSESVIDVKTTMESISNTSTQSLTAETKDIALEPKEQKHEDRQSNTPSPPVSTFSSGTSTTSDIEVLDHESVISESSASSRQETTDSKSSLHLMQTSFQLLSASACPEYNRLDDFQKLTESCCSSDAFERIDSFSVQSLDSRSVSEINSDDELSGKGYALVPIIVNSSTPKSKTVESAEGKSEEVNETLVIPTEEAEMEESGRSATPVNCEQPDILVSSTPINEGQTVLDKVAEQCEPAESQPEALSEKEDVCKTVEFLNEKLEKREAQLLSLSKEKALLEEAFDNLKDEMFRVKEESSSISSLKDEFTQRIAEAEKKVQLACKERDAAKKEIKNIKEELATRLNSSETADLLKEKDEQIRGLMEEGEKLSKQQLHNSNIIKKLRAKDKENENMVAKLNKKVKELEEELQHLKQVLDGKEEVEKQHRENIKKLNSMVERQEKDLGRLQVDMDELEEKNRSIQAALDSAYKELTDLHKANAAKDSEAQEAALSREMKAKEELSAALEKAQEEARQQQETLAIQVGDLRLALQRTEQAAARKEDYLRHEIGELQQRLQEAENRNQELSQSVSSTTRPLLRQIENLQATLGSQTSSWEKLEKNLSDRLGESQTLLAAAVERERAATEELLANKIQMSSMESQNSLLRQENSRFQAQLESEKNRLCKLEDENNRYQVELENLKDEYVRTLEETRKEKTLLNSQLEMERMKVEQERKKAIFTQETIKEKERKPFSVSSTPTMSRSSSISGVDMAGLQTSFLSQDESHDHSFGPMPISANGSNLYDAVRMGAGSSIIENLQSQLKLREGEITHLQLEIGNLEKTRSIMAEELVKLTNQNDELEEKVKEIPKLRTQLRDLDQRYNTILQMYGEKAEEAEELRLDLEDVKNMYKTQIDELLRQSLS
# UniProt Q00765: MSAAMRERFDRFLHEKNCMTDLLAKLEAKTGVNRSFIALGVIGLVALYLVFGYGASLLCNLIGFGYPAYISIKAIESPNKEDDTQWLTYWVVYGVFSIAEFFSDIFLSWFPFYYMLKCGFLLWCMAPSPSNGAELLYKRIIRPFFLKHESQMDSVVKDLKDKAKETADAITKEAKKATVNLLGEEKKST
# UniProt Q00169: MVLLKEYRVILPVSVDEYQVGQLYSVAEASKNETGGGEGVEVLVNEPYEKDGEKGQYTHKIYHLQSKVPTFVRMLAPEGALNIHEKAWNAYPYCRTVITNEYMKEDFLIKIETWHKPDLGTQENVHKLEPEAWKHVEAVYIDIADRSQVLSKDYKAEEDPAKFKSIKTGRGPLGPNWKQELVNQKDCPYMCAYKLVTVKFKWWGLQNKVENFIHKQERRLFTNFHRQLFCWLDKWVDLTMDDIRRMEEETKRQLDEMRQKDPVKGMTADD
# UniProt P62253: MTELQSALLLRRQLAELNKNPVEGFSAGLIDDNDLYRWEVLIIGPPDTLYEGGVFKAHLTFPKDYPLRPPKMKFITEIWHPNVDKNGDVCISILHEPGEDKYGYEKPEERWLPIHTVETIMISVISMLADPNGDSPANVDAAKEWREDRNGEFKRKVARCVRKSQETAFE
# UniProt Q04837: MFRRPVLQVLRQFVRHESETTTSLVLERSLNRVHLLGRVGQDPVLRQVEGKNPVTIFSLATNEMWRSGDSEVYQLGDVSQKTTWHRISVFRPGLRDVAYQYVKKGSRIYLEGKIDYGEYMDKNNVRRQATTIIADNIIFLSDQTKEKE
# UniProt P61024, whole entry: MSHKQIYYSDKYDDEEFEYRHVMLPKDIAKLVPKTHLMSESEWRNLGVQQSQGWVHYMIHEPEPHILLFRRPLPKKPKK
# UniProt Q00534, whole entry: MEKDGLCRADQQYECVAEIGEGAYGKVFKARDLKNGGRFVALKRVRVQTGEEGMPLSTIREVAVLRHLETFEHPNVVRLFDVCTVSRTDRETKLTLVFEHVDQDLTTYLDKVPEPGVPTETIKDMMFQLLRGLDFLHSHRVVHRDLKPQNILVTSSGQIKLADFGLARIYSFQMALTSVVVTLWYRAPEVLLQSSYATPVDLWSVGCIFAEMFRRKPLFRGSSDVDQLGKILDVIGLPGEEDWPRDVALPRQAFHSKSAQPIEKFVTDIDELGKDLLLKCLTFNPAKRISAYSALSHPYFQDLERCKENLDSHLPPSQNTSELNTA
# UniProt P60900, whole entry: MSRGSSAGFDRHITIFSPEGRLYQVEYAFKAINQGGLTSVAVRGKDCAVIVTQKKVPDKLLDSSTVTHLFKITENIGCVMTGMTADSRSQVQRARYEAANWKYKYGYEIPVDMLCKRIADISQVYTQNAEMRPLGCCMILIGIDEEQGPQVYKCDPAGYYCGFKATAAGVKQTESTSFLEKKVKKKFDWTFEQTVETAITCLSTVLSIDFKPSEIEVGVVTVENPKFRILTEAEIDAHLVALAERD
# ± gives the standard deviation of the averaged measurements. This is a selection; strong and weak results do not stand in their true shares. Most entries show no effect beyond the scatter of the controls.
# Compound: Nc1ncnc2c1ncn2[C@@H]1O[C@H](COP(=O)(O)OP(=O)(O)NP(=O)(O)O)[C@@H](O)[C@H]1O [adenylyl imidodiphosphate]
# Test: NP40-soluble protein abundance relative to vehicle (solubility fold change) (ratio); higher = more soluble protein in presence of AMP-PNP
# Conditions: concentration: 0.1mM
# Summary of the method: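 Data come from three independent experiments in which Dounce-homogenised Jurkat crude lysate was treated at eight concentrations from 0.1 to 10 mM. Treatment ran 10 min at room temperature and then 3 min at 37 °C, after which 0.8% NP40 and benzonase were added for 60 min at 4 °C before ultracentrifugation. The supernatant underwent TMT labelling and LC-MS/MS, and vsn-normalised intensities were expressed as fold change against the detergent-processed vehicle in each replicate.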
row,Target,NP40-soluble protein abundance
1,UniProt P56385,0.846 ± 0.072
2,UniProt P61956,1 ± 0.012
3,RAB4B (UniProt P61018),0.982 ± 0.023
4,PPAT (UniProt Q06203),1.02 ± 0.074
5,UniProt P61026,0.948 ± 0.047
6,TMEM33 (UniProt P57088),1.01 ± 0.06
7,VBP1 (UniProt P61758),0.97 ± 0.089
8,UniProt P68036 and related entries,1 ± 0.046
9,RHOA (UniProt P61586),0.9868 ± 0.0093
10,UniProt P62820,0.962 ± 0.038
11,UniProt Q01082 and related entries,0.9832 ± 0.0091
12,YBX1 (UniProt P67809),0.976 ± 0.11
13,EIF6 (UniProt P56537),1.01 ± 0.049
14,ARG2 (UniProt P78540),0.9956 ± 0.0086
15,RPL10A (UniProt P62906),1.042 ± 0.0035
16,UniProt P61081,0.981 ± 0.011
17,UniProt P63220 and related entries,1.03 ± 0.04
18,UniProt Q04724 and related entries,0.987 ± 0.016
19,UniProt P61201 and related entries,1.01 ± 0.032

row,Target,NP40-soluble protein abundance
1,CCT2 (UniProt P78371),1.01 ± 0.011
2,UniProt P62829,1.01 ± 0.017
3,IGBP1 (UniProt P78318),0.996 ± 0.049
4,TBPL1 (UniProt P62380),1.01 ± 0.017
5,UniProt P98155 and related entries,1.16 ± 0.11
6,UniProt P62312,1.01 ± 0.045
7,UniProt Q06136 and related entries,0.997 ± 0.042
8,UniProt P82094 and related entries,0.993 ± 0.018
9,REEP5 (UniProt Q00765),0.962 ± 0.019
10,UniProt P61129,1.02 ± 0.027
11,PITPNA (UniProt Q00169),0.981 ± 0.014
12,UniProt Q06265 and related entries,1 ± 0.027
13,UniProt P62253,0.99 ± 0.024
14,UniProt Q06124-2,0.9743 ± 0.0074
15,SSBP1 (UniProt Q04837),0.995 ± 0.027
16,UniProt P61163,1.04 ± 0.013
17,UniProt P61024 and related entries,0.986 ± 0.031
18,CDK6 (UniProt Q00534),0.992 ± 0.014
19,UniProt P60900 and related entries,0.976 ± 0.017

# Same assay, conditions: concentration: 0.5mM
row,Target,NP40-soluble protein abundance
1,UniProt P56385,0.989 ± 0.059
2,UniProt P61956,1.05 ± 0.013
3,RAB4B (UniProt P61018),0.984 ± 0.047
4,PPAT (UniProt Q06203),0.972 ± 0.14
5,UniProt P61026,0.988 ± 0.017
6,TMEM33 (UniProt P57088),1 ± 0.038
7,VBP1 (UniProt P61758),0.965 ± 0.079
8,UniProt P68036 and related entries,1.06 ± 0.071
9,RHOA (UniProt P61586),1.04 ± 0.072
10,UniProt P62820,0.989 ± 0.033
11,UniProt Q01082 and related entries,1.04 ± 0.029
12,YBX1 (UniProt P67809),1.08 ± 0.29
13,EIF6 (UniProt P56537),0.985 ± 0.032
14,ARG2 (UniProt P78540),1.01 ± 0.015
15,RPL10A (UniProt P62906),1.02 ± 0.033
16,UniProt P61081,1.01 ± 0.035
17,UniProt P63220 and related entries,1 ± 0.073
18,UniProt Q04724 and related entries,0.97 ± 0.039
19,UniProt P61201 and related entries,1.03 ± 0.027

row,Target,NP40-soluble protein abundance
1,CCT2 (UniProt P78371),0.992 ± 0.014
2,UniProt P62829,1.008 ± 0.008
3,IGBP1 (UniProt P78318),0.991 ± 0.029
4,TBPL1 (UniProt P62380),0.991 ± 0.053
5,UniProt P98155 and related entries,0.998 ± 0.02
6,UniProt P62312,1.02 ± 0.089
7,UniProt Q06136 and related entries,1.01 ± 0.042
8,UniProt P82094 and related entries,1 ± 0.064
9,REEP5 (UniProt Q00765),1.03 ± 0.087
10,UniProt P61129,1.08 ± 0.046
11,PITPNA (UniProt Q00169),0.989 ± 0.033
12,UniProt Q06265 and related entries,1.01 ± 0.025
13,UniProt P62253,0.99 ± 0.056
14,UniProt Q06124-2,0.981 ± 0.0074
15,SSBP1 (UniProt Q04837),1.02 ± 0.062
16,UniProt P61163,1 ± 0.083
17,UniProt P61024 and related entries,1 ± 0.046
18,CDK6 (UniProt Q00534),0.9923 ± 0.0095
19,UniProt P60900 and related entries,0.977 ± 0.039
